Experimental data: the supplement of paper PMC10849652
Some of the results follow.

By UniProt entry, the sequences of proteins in these tests, tags left out. Where a name states a change or a piece, a line headed by the entry shows the natural chain unless it says otherwise.
UniProt P26641, whole entry, looked up: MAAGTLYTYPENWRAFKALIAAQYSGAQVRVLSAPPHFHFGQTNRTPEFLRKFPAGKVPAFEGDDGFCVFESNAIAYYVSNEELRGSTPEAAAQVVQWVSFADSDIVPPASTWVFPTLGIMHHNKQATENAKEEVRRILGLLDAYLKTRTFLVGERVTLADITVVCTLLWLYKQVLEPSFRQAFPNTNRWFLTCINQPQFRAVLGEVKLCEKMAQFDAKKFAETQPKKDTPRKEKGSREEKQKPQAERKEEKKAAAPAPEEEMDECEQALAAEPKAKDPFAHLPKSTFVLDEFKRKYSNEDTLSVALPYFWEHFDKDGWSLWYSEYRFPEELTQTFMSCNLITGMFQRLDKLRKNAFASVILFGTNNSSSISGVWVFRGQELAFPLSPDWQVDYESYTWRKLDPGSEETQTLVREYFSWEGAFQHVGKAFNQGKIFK
UniProt Q9NZN4: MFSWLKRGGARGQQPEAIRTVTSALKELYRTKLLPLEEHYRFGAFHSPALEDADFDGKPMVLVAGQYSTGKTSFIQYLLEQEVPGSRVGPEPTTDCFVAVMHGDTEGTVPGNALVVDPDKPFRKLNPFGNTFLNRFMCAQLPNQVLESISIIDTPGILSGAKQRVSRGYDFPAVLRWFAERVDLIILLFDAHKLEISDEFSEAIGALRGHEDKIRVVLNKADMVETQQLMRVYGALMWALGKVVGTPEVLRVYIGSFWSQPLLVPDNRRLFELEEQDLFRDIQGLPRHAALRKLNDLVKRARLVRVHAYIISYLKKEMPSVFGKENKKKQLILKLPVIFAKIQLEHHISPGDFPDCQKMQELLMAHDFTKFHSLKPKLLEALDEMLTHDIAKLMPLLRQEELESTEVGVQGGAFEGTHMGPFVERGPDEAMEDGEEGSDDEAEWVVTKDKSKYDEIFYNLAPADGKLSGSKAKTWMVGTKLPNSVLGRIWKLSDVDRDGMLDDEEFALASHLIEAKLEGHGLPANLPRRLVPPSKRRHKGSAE
UniProt P41214: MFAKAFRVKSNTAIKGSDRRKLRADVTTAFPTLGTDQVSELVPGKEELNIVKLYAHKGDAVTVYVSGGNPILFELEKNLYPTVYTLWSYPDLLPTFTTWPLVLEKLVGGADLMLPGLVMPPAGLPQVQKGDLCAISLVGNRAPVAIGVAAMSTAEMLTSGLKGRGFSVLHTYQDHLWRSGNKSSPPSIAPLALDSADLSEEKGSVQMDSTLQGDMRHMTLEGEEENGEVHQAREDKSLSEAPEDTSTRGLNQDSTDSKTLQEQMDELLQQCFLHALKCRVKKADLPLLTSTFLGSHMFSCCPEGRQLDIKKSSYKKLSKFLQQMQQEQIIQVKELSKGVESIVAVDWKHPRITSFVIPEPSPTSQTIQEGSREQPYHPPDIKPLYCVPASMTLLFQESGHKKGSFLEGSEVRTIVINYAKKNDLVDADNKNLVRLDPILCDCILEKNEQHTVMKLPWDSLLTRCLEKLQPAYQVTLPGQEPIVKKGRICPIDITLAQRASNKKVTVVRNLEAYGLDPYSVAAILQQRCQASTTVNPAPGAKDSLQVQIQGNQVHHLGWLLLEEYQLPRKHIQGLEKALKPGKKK
UniProt Q5NDL2: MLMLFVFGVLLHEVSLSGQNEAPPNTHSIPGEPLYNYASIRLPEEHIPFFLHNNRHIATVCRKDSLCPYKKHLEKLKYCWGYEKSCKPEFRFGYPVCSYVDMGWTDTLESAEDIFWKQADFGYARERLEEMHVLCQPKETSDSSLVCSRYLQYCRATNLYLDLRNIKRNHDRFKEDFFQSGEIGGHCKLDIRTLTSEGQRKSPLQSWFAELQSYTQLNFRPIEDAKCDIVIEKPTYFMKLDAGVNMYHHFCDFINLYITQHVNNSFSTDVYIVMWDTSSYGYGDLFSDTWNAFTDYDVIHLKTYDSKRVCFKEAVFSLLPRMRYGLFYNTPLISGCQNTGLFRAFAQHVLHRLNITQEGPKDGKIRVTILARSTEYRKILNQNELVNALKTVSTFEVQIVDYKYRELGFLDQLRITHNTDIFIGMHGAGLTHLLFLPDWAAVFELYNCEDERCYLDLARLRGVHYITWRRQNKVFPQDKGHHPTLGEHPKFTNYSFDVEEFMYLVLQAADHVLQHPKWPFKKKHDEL
UniProt P06733, whole entry, looked up: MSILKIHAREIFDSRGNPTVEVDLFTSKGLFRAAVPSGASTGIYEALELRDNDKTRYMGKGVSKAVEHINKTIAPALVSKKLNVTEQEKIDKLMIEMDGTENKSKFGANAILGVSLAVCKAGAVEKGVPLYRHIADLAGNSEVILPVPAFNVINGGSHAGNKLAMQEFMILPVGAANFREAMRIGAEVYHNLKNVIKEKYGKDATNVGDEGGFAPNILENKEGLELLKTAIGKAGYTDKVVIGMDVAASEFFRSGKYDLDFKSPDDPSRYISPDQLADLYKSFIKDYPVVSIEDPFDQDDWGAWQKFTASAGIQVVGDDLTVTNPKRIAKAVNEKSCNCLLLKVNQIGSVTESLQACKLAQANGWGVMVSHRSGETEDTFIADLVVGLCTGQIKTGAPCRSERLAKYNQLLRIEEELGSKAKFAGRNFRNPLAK
UniProt Q8N6R0: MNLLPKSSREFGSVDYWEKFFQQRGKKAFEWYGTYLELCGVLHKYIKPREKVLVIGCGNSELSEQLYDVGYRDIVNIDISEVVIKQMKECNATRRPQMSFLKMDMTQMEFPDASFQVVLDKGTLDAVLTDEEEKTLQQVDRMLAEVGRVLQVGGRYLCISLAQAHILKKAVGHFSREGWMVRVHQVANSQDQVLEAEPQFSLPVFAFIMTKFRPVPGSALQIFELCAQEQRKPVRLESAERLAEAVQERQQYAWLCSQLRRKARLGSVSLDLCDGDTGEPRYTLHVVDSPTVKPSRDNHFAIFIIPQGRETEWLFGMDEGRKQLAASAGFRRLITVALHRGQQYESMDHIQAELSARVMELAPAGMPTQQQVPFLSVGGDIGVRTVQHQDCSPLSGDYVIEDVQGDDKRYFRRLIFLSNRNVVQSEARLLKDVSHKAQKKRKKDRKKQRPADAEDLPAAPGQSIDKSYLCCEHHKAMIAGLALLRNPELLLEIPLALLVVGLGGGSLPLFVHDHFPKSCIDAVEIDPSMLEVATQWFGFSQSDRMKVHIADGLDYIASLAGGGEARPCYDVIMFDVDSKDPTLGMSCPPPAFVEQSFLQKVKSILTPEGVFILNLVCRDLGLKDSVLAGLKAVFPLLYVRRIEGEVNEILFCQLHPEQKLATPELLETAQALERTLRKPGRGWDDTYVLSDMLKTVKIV
UniProt Q8NFI3: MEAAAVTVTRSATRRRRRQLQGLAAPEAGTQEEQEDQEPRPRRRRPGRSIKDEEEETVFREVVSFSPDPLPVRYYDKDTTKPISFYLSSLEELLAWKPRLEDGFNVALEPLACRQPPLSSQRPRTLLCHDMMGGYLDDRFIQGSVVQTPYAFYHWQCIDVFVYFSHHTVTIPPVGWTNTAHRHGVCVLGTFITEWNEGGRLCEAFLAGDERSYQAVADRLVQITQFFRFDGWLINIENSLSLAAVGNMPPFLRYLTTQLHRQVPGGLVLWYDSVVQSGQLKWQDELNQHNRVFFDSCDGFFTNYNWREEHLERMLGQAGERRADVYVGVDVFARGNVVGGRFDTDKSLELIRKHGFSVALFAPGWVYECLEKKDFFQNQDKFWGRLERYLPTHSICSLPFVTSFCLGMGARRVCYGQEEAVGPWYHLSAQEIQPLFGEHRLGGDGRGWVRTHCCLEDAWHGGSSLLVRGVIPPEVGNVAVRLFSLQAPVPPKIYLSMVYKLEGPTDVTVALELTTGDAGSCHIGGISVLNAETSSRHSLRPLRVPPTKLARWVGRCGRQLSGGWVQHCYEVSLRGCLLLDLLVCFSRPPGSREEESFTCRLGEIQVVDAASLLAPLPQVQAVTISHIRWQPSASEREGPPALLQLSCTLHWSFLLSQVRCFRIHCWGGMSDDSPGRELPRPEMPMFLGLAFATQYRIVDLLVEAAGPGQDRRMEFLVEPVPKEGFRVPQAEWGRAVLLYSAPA
UniProt Q99613, whole entry, looked up: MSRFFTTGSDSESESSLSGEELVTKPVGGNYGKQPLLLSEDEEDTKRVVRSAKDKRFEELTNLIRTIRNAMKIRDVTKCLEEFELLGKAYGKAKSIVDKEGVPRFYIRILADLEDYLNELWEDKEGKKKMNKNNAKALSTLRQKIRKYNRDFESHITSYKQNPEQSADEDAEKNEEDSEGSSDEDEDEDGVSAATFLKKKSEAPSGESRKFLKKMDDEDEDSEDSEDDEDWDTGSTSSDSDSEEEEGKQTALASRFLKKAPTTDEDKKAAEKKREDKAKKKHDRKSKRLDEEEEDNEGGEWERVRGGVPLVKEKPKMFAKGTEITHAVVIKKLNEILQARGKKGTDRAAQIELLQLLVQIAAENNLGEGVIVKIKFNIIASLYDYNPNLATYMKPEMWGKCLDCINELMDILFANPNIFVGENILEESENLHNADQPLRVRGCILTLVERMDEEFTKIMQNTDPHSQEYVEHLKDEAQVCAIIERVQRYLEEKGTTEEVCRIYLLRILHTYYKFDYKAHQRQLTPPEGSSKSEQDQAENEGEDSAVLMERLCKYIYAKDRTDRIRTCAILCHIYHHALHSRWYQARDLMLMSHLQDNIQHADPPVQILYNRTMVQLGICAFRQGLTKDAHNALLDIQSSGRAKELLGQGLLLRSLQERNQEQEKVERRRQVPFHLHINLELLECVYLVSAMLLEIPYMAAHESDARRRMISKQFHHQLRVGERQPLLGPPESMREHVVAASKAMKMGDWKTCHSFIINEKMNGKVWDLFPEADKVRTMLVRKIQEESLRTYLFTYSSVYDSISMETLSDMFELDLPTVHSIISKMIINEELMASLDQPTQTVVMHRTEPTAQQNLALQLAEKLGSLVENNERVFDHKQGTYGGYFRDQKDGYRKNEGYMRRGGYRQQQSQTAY

Legend:
Experiment in all cases: log2 fold change, soluble protein after heating vs DMSO (PISA); higher = thermal stabilisation; K562 cells, 10 uM, 30 min; active = over 0.2 and 3.5 SD of the protein, either way, in both replicates (recomputed)
[1] = compound: CC1=C(C=C(C=C1)NC(=O)C2=CC(=CC=C2)C(C)(C)C#N)NC3=CC4=C(C=C3)N=CN(C4=O)C
How it was run: (§1)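 Thermal stability values are relative to control samples and come from duplicates. They are expressed as log2 fold changes. For measurement, K562 cells (2×10^6 cells/mL) received 10 μM compound for 30 min, and aliquots were heated for 3 min over 48°C-58°C, pooled, and extracted at 4°C in PBS with 0.5% NP-40. Soluble protein, the supernatant after 21,000xg for 90 min, was quantified by TMTpro 16plex LC-MS/MS with equalised channel sums.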

[2] = compound: CC1=C(C=C(C=C1)NC(=O)C2=CC(=CC=C2)N(C)C)NC(=O)C3=CC=C(C=C3)O
How it was run: as §1

[3] = compound: CC1=CC=C(C=C1)SC2=C3C=C(SC3=CN=C2)C(=O)N
How it was run: as §1

[4] = compound: CC1=NC(=CC=C1)C2=C(N=C(N2)C(C)(C)C)C3=CC4=NC=CN=C4C=C3
How it was run: as §1

[5] = compound: CCCCN(Cc1ccc(C(=O)NO)cc1)C(=O)Nc1ccccc1 [Nexturastat A]
How it was run: as §1

[6] = compound: CCCS(=O)(=O)Nc1ccc(F)c(C(=O)c2c[nH]c3ncc(-c4ccc(Cl)cc4)cc23)c1F [vemurafenib]
How it was run: as §1

[7] = compound: CCCS(=O)(=O)Nc1ccc(F)c(C(=O)c2c[nH]c3ncc(Cl)cc23)c1F
How it was run: as §1

[8] = compound: CCCc1cc(C)[nH]c(=O)c1CNC(=O)c1cc(-c2ccnc(N3CCN(C)CC3)c2)cc2c1cnn2C(C)C
How it was run: as §1

[9] = compound: CCN(CC)Cc1ccc2cc(COC(=O)Nc3ccc(C(=O)NO)cc3)ccc2c1 [givinostat]
How it was run: as §1

[10] = compound: CCN(CCCOc1ccc2c(Nc3cc(CC(=O)Nc4cccc(F)c4)[nH]n3)ncnc2c1)CCOP(=O)(O)O [barasertib]
How it was run: as §1

[11] = compound: CC[C@@H]1C(=O)N(C)c2cnc(Nc3ccc(C(=O)NC4CCN(C)CC4)cc3OC)nc2N1C1CCCC1
How it was run: as §1

[12] = compound: CC[C@@H]1C(=O)N(C)c2cnc(Nc3ccc(C(=O)N[C@H]4CC[C@H](N5CCN(CC6CC6)CC5)CC4)cc3OC)nc2N1C(C)C [volasertib]
How it was run: as §1

[13] = compound: CC[C@H](C)N1C=C(C2=C(C=C(C=C21)C3=CN=C(C=C3)N4CCNCC4)C(=O)NCC5=C(C=C(NC5=O)C)C)C
How it was run: as §1

[14] = compound: CC[C@H](C)[C@@H](C(=O)N[C@@H]([C@@H](C)O)C(=O)N[C@@H](CC(C)C)C(=O)[C@]1(CO1)C)NC(=O)[C@H]([C@@H](C)CC)N(C)C(=O)C [epoxomicin]
How it was run: as §1

[15] = compound: CCn1cc(-c2ccnc3[nH]c(-c4cccc(CN(C)C)c4)cc23)c(-c2ccc(NC(=O)N(C)C)cc2)n1
How it was run: as §1

[16] = compound: CN(C)CC(=O)Nc1ccc2[nH]c(=O)c3ccccc3c2c1
How it was run: as §1

[17] = compound: CN1C2=C(C3=C1C(=O)N(N=C3)CC4=CC(=CC=C4)N)SC(=C2)S(=O)C
How it was run: as §1

[18] = compound: CN1CCC(CNc2ccc3ncc(-c4cccc(OC(F)(F)F)c4)n3n2)CC1
How it was run: as §1

[19] = compound: CCn1c(C(=O)N(C2CC2)C2CC2)cc2c3c(ncn3C)c(Nc3cc(C)n(C)n3)nc21
How it was run: as §1

[20] = compound: CN(CCOC1=CC=C(C=C1)C[C@H]2C(=O)NC(=O)S2)C3=CC=CC=N3 (racemic) [rosiglitazone]
How it was run: as §1

Measured: log2 fold change

EEF1G isoform 2 (UniProt P26641)
inactive: [1] 0.035 | [2] -0.015 | [3] 0.014 | [4] 0.049 | [5] -0.062 | [6] 0.07 | [7] 0.101 | [8] 0.095 | [9] -0.013 | [10] 0.037 | [11] -0.164 | [13] 0.075 | [14] 0.008 | [15] -0.005 | [16] 0.022 | [17] 0.011 | [18] 0.016
active: [12] -0.364

EHD2 (UniProt Q9NZN4)
inactive: [1] -0.037 | [2] -0.026 | [3] -0.007 | [4] 0.059 | [5] 0.003 | [6] 0.029 | [7] 0.007 | [8] -0.024 | [9] 0.024 | [10] 0.03 | [11] -0.073 | [13] 0.027 | [14] 0.023 | [15] -0.085 | [16] 0.007 | [17] -0.045 | [18] -0.002
active: [12] -0.243

EIF2D (UniProt P41214)
inactive: [1] -0.018 | [2] -0.034 | [3] 0.165 | [4] -0.034 | [5] 0.118 | [6] 0.082 | [7] 0.222 | [8] 0.09 | [9] 0.174 | [10] 0.104 | [11] -0.036 | [12] -0.558 | [13] 0.034 | [14] 0.019 | [19] -0.139 | [15] 0.013 | [16] 0.065 | [20] 0.112 | [17] 0.105 | [18] -0.112

EOGT (UniProt Q5NDL2)
inactive: [1] -0.043 | [2] -0.073 | [3] -0.088 | [4] -0.052 | [5] 0.033 | [6] -0.05 | [7] -0.098 | [8] -0.043 | [9] 0.02 | [10] -0.026 | [11] -0.004 | [12] 0.013 | [13] -0.037 | [14] 0.05 | [15] 0.001 | [16] 0 | [17] 0.021 | [18] 0.062

ENO1 isoform 2 (UniProt P06733)
inactive: [1] -0.22 | [2] -0.033 | [3] 0.024 | [4] -0.031 | [5] 0.307 | [6] -0.049 | [7] -0.012 | [8] -0.011 | [9] 0.088 | [10] 0 | [11] 0.017 | [12] 0.036 | [13] -0.11 | [14] 0.121 | [19] -0.047 | [15] -0.143 | [16] -0.022 | [20] 0.016 | [17] -0.027 | [18] -0.135

EEF1AKNMT (UniProt Q8N6R0)
active: [12] -0.564
inactive: [1] 0.078 | [2] -0.037 | [3] 0.031 | [4] 0.026 | [5] -0.026 | [6] 0.084 | [7] 0.062 | [8] 0.075 | [9] 0.04 | [10] 0.076 | [11] -0.082 | [13] 0.111 | [14] 0.012 | [15] 0.134 | [16] 0.092 | [17] 0.075 | [18] -0.095

ENGASE (UniProt Q8NFI3)
inactive: [1] -0.034 | [2] 0.073 | [3] 0.046 | [4] -0.052 | [5] 0.025 | [6] -0.105 | [7] -0.025 | [8] -0.077 | [9] 0.021 | [10] 0.048 | [11] 0.022 | [12] -0.046 | [13] 0.02 | [14] -0.003 | [19] -0.013 | [15] -0.007 | [16] 0.028 | [20] 0.041 | [17] -0.064 | [18] -0.016

EIF3C (UniProt Q99613)
inactive: [1] -0.027 | [2] -0.063 | [3] 0.024 | [4] -0.019 | [5] 0.259 | [6] 0.024 | [7] 0.06 | [8] 0.075 | [9] 0.137 | [10] 0.071 | [11] -0.023 | [12] -0.404 | [13] 0.103 | [14] 0.065 | [19] -0.078 | [15] 0.019 | [16] 0.045 | [20] 0.066 | [17] 0.152 | [18] -0.06
